{
  "sequences": {"note": "Protein sequences, listed by entry. Tags and fused reporters are not part of them.", "UniProt A0A1L8ESF3, entry or part of it": "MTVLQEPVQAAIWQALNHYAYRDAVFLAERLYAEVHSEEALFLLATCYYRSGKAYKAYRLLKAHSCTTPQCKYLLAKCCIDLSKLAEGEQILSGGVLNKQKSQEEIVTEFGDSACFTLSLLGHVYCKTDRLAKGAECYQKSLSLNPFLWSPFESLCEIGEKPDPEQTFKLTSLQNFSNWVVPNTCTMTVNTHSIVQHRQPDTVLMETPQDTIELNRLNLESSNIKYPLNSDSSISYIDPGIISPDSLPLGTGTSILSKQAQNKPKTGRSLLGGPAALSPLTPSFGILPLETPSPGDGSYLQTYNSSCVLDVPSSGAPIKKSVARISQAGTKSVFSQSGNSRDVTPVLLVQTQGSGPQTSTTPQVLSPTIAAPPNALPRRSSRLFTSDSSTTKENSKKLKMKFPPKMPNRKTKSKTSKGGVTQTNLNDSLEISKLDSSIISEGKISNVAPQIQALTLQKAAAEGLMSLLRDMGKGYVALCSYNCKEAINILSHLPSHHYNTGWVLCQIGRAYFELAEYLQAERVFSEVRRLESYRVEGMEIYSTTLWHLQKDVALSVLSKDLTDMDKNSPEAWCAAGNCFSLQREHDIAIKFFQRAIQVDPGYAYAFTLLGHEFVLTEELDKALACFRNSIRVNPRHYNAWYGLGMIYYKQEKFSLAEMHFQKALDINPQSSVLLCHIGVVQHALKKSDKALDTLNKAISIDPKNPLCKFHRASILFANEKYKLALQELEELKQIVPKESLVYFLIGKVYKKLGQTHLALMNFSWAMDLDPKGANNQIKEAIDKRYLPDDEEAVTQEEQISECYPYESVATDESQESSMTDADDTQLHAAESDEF", "UniProt Q12834, whole entry": "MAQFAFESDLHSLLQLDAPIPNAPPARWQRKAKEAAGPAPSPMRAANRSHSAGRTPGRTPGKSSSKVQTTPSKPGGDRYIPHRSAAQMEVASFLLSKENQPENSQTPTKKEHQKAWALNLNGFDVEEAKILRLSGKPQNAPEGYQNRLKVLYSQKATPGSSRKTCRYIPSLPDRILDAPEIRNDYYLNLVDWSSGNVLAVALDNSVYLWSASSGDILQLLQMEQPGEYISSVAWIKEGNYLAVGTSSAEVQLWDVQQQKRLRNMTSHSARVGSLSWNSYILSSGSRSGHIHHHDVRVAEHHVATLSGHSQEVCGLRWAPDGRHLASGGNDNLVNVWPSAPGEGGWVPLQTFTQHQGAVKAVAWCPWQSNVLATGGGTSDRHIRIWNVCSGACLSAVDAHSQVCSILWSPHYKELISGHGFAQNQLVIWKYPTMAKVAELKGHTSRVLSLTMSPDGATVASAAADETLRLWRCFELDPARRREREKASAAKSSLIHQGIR"},
  "source": "patent US9572788B2",
  "about": "“Cell permeable inhibitors of anaphase promoting complex” (President and Fellows of Harvard College, priority 2014, dated 2017)",
  "key": {"APC/C": {"test_system": "APC/C", "assay": "^35S-labeled substrate degradation in mitotic Xenopus egg extract", "format": "biochemical"}, "APC": {"molecular_target": "APC (Xenopus laevis, UniProt A0A1L8ESF3)", "assay": "APC-Cdc20/Cdh1 association assay in Xenopus extract", "format": "binding", "conditions": "cyclin B1 NT substrate; 50 μM compound"}, "human Cdc20": {"molecular_target": "T1, human Cdc20 (Homo sapiens, UniProt Q12834)", "T1 construct": "made in house; host or cells: rabbit reticulocyte lysate (coupled in vitro transcription/translation), pCS2 vector", "assay": "Cdc20 binding to apcin-A (amino-cyclinal) resin", "conditions": "in vitro-translated Cdc20"}},
  "note": "At least one compound was matched to its structure with a doubt left.",
  "data": [
    {"smiles": "Cc1ncc([N+](=O)[O-])n1CCOC(=O)NC(Nc1ncccn1)C(Cl)(Cl)Cl", "note": "(stereo not shown) [apcin]", "values": [
      {"measurement": "Stabilization of cyclin A2 or Nek2A", "setting": "APC/C; even high concentrations", "result": "failed to stabilize cyclin A2 or Nek2A"},
      {"measurement": "Stabilization of full-length cyclin B1", "setting": "APC/C; mitotic Xenopus extract", "result": "somewhat weaker effects"},
      {"measurement": "Substrate-induced loading of Cdc20 onto APC/C", "setting": "APC", "result": "could be blocked by addition of apcin"},
      {"measurement": "Competition for Cdc20 binding to apcin-A (cyclinal) resin", "setting": "human Cdc20", "result": "could be competed by free apcin"}
    ]}
  ]
}
